# Source: patent US12186329B2 (President and Fellows of Harvard College, priority 2018, dated 2025)
# At least one structure is not confirmed: it was looked up by name or label, or the drawing left a doubt.
# Tested on: SULT2A1
# Experiment: Induction of SULT2A1 in HepG2 cells by bile acids
# Type: cell-based
# Details: all concentrations tested
smiles,measurement,value
"C[C@H](CCC(=O)O)[C@H]1CC[C@H]2[C@@H]3CC[C@@H]4C[C@H](O)CC[C@]4(C)[C@H]3CC[C@]12C [LCA, lithocholic acid]",Induction of SULT2A1 in HepG2,induced SULT2A1 in HepG2
